Test results reported in the supplement of paper PMC12823440, “Inhibitors supercharge kinase turnover through native proteolytic circuits” (Nature, 2025).
The other results are listed elsewhere or left out. Hit calls seldom repeat between salt and free forms of one compound.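 Kinases, fused to nanoluciferase, were expressed in K562 cells; luminescence was measured every 4 h from 2 to 18 h as percent of control (DMSO = 100%, positive control = 0%). A time point is decreased if signal falls significantly (2 sigma). Hits were called by the authors by a rule that is not shown; the count of time points alone does not decide it.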

By UniProt entry, the sequences of proteins in these tests, tags left out. Where a name states a change or a piece, a line headed by the entry shows the natural chain unless it says otherwise.
UniProt Q16288, whole entry, looked up: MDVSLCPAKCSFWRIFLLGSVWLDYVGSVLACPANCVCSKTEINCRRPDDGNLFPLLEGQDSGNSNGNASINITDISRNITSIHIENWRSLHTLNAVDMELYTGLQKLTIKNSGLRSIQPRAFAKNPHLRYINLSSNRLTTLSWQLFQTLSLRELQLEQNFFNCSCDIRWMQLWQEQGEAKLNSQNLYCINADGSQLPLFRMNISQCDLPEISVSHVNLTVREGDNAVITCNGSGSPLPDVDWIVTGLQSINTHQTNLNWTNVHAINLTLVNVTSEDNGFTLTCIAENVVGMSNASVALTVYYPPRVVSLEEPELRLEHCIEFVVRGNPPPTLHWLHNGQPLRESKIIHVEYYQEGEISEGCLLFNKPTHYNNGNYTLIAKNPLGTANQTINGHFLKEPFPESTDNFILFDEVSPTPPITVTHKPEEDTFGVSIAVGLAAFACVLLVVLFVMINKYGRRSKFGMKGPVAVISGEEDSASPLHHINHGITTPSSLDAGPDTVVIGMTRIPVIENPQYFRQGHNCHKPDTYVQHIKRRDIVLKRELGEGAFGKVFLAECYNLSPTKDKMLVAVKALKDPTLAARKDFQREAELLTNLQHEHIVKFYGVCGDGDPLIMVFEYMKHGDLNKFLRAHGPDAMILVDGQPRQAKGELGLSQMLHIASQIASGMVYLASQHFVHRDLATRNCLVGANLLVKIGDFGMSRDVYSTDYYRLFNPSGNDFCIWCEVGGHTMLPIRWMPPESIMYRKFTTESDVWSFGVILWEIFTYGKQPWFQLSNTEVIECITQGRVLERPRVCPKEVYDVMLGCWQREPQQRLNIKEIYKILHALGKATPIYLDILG
UniProt O96013: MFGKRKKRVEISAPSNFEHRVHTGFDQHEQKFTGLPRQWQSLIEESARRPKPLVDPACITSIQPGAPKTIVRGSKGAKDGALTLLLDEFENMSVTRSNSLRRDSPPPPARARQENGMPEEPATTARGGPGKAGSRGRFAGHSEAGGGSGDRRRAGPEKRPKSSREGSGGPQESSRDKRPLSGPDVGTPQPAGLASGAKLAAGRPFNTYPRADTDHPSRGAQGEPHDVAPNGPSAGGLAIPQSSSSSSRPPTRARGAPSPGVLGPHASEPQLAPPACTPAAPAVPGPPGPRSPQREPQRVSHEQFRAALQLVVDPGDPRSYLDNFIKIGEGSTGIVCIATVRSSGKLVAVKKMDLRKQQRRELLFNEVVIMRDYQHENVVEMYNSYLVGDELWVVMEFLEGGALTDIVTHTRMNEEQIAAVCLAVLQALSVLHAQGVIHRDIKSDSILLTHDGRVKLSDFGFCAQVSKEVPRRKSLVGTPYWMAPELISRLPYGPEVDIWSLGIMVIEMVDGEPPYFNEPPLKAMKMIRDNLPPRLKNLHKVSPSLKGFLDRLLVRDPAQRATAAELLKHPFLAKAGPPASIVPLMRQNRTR
UniProt Q96KB5: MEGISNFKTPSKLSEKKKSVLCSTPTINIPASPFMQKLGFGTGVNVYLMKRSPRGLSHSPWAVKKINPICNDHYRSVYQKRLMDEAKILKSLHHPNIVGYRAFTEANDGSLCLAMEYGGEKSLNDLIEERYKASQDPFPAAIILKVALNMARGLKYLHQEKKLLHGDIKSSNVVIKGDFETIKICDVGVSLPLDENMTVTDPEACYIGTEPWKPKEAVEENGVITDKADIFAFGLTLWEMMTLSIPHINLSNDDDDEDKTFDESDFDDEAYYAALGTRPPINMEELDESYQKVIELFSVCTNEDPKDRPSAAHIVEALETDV
UniProt Q15118, whole entry, looked up: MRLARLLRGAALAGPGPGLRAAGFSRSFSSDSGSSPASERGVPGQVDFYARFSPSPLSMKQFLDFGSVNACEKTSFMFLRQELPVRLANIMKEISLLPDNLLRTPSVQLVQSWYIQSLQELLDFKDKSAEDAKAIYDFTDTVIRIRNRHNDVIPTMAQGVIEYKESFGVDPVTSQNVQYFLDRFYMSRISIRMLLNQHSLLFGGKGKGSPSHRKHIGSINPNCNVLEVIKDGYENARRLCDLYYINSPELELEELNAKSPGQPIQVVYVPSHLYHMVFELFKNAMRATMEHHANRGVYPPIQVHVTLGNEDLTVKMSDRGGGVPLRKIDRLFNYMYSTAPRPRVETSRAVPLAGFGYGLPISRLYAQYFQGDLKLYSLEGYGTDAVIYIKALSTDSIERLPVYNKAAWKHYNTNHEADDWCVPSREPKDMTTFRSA
UniProt O15530: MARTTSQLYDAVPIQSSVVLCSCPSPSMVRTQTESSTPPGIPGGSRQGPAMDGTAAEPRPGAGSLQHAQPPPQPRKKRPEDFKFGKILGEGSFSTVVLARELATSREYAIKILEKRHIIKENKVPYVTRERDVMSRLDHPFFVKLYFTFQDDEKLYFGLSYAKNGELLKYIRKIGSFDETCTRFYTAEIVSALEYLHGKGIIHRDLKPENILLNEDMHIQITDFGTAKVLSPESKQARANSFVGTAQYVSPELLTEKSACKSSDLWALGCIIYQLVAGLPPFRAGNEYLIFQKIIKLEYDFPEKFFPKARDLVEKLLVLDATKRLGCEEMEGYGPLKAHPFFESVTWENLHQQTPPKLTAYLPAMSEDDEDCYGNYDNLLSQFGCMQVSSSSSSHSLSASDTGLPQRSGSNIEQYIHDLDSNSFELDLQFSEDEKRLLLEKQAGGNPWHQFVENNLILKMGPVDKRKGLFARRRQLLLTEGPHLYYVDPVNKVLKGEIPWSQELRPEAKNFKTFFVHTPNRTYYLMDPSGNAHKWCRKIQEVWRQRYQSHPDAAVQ
UniProt P42356, whole entry, looked up: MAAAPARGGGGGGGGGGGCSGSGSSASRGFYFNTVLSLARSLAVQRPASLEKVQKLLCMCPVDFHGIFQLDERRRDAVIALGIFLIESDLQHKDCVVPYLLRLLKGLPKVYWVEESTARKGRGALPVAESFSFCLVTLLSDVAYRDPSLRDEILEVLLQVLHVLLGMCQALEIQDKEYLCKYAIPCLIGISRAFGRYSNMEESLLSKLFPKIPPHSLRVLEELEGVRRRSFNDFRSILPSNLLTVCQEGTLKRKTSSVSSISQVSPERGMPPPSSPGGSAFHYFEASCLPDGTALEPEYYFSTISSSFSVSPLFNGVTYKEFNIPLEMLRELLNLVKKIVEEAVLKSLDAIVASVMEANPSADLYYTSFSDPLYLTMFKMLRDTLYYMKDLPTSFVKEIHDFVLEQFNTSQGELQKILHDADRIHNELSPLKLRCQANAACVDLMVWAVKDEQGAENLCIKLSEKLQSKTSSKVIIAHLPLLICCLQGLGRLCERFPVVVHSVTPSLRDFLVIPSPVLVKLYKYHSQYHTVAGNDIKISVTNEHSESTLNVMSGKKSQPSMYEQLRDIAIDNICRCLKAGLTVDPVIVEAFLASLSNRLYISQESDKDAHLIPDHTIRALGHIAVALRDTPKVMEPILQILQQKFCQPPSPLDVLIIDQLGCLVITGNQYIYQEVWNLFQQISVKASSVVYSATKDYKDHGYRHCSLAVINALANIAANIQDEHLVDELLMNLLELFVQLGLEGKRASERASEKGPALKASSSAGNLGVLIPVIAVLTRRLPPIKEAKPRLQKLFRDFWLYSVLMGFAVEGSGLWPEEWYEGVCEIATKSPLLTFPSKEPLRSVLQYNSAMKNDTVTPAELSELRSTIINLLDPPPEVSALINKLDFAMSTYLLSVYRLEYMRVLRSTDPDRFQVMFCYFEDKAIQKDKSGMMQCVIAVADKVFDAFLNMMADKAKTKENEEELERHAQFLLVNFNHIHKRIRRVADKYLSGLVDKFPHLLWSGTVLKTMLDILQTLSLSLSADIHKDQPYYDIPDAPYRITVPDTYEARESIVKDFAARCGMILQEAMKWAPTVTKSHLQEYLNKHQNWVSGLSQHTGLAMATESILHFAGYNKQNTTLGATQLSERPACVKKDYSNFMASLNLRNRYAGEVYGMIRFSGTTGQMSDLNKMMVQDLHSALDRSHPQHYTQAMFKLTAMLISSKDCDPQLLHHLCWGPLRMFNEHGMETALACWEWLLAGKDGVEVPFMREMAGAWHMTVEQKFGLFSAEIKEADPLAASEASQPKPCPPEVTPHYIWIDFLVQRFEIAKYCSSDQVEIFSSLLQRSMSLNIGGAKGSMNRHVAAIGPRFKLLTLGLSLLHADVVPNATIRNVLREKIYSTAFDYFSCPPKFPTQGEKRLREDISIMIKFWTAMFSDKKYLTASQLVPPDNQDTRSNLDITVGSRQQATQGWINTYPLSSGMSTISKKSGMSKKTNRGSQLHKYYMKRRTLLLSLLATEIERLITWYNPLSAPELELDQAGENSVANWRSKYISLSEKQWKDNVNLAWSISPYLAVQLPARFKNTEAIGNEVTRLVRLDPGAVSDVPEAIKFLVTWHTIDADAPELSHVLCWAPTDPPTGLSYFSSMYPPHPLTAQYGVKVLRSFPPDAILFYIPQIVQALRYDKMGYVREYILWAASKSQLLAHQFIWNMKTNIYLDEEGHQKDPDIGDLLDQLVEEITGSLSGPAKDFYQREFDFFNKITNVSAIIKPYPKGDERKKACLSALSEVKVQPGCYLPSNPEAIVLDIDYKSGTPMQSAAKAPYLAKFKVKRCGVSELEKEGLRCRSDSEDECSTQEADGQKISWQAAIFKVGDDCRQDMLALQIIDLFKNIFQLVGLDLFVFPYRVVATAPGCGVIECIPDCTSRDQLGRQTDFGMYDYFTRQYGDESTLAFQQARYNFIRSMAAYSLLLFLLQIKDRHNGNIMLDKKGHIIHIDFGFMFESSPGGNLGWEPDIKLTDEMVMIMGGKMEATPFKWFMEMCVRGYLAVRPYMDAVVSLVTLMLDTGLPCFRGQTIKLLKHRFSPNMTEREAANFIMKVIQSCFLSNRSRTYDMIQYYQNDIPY
UniProt Q9UBF8: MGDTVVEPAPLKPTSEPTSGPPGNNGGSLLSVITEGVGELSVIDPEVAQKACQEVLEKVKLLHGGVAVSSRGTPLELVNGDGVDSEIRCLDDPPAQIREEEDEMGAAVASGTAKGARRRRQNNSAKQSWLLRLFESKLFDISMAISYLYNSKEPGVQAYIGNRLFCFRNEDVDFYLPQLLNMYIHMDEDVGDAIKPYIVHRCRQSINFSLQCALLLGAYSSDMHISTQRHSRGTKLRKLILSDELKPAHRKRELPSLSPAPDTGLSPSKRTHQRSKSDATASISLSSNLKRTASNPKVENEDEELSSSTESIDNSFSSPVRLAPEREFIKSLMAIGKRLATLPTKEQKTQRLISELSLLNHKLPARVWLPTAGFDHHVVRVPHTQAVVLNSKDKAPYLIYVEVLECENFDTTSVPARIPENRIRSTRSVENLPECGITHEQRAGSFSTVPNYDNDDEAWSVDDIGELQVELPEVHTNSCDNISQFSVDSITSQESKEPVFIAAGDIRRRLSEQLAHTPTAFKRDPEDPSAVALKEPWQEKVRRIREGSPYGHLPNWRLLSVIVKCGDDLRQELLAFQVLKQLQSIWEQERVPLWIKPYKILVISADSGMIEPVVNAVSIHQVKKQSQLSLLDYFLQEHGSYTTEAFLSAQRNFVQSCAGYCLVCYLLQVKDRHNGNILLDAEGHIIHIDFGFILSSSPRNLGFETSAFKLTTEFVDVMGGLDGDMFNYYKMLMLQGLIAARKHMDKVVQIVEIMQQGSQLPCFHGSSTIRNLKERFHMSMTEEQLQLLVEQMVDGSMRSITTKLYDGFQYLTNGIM
UniProt P53350, whole entry: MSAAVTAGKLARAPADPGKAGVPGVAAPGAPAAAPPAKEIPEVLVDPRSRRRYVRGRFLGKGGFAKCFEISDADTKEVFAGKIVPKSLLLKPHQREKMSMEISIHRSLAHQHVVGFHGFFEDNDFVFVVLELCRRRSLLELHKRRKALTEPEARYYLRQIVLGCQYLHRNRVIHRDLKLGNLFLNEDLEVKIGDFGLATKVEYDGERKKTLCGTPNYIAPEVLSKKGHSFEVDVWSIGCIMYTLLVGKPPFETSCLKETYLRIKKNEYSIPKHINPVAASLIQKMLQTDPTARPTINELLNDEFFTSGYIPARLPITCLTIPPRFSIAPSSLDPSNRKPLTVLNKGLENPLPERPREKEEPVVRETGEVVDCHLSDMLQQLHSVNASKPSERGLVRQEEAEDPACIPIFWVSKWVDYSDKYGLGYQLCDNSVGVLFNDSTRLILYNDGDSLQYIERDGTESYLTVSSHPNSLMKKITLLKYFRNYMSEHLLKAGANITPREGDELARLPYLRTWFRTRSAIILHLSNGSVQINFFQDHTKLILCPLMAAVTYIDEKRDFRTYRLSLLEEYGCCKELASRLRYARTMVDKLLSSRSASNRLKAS

Legend:
Test in all cases: number of time points (of 5) at which kinase-Nluc abundance scored as decreased, DMSO-normalised (count); higher = more persistent destabilization
Conditions in all cases: K562; 2-18 h
[1] = target: NTRK3 (UniProt Q16288)
[2] = target: PAK4 (UniProt O96013)
[3] = target: PBK (UniProt Q96KB5)
[4] = target: PDGFRB (UniProt P09619)
[5] = target: PDK1 (UniProt Q15118)
[6] = target: PDPK1 (UniProt O15530)
[7] = target: PIK4CA (UniProt P42356)
[8] = target: PIK4CB (UniProt Q9UBF8)
[9] = target: PLK1 (UniProt P53350)
[10] = target: PRKAA1 (UniProt Q13131)

Row | Compound | number of time points [1] | number of time points [2] | number of time points [3] | number of time points [4] | number of time points [5] | number of time points [6] | number of time points [7] | number of time points [8] | number of time points [9] | number of time points [10]
1 | O=C1NCCc2[nH]c(-c3ccnc(-c4cnc5ccccc5c4)c3)cc21 (10 µM) | 0 | 0 | 0 | 0 | 0 | 0 | 0 | 0 | 0 | 0
2 | COc1cc2ncnc(Nc3cccc(O)c3)c2cc1OC (10 µM) | 1 | 0 | 0 | 1 | 0 | 4 | 2 | 1 | 1 | 3
3 | CNC(=O)c1cccc2cc(Oc3ccnc4cc(OCC5(N)CC5)c(OC)cc34)ccc12 [Lucitanib] (10 µM) | 0 | 0 | 0 | 0 | 0 | 0 | 0 | 0 | 0 | 0
4 | Cc1ncc(-c2ccnc(Nc3ccc(S(C)(=O)=O)cc3)n2)n1C(C)C (2.5 µM) | 0 | 0 | 0 | 0 | 0 | 2 | 0 | 0 | 0 | 0
5 | Cc1nc(N)sc1-c1ccnc(Nc2ccc(N3CCOCC3)cc2)n1 (10 µM) | 0 | 0 | 0 | 0 | 0 | 0 | 0 | 0 | 0 | 0
6 | O=C(Nc1cc(C(F)(F)F)ccc1N1CCN(Cc2ccccn2)CC1)c1ccc(-c2ccncc2)o1 (10 µM) | 0 | 0 | 0 | 0 | 0 | 0 | 0 | 0 | 0 | 0
7 | CCOc1cc2ncc(-c3cc(N)nc(F)c3)n2cc1S(=O)(=O)C(C)(C)C (10 µM) | 0 | 0 | 0 | 0 | 0 | 0 | 0 | 0 | 0 | 0
8 | COc1cc2c(Nc3ccc(NC(=O)c4ccccc4)cc3)ncnc2cc1OCCCN1CCOCC1 (10 µM) | 0 | 0 | 0 | 0 | 0 | 0 | 0 | 0 | 0 | 0
9 | O=c1cc(-c2ccccc2)oc2c(O)c(O)ccc12 [7,8-Dihydroxyflavone] (10 µM) | 0 | 0 | 0 | 0 | 0 | 0 | 0 | 0 | 0 | 0
10 | CN(C)C(=O)/C(C#N)=C/c1ccc(-c2nc3cnc4[nH]ccc4c3n2C2CCCCC2)o1 (10 µM) | 0 | 0 | 0 | 0 | 0 | 0 | 0 | 0 | 0 | 0
11 | COc1c(CC=C(C)C)c(O)cc2oc(=O)c(-c3ccc(O)cc3O)cc12 [Glycycoumarin] (10 µM) | 0 | 0 | 0 | 0 | 0 | 0 | 0 | 0 | 0 | 0
12 | CCC(=O)N1CCN(c2ccc(-n3c(=O)ccc4cnc5ccc(-c6cnc7ccccc7c6)cc5c43)cc2C(F)(F)F)CC1 [Torin 1] (2 µM) | 3 | 0 | 0 | 0 | 0 | 2 | 0 | 0 | 0 | 0
13 | CC1(C)CC=C(c2nc(C3CC(C)(C)OC(C)(C)C3)ccc2NC(=O)c2nc(C#N)c[nH]2)CC1 [Edicotinib] (2.5 µM) | 0 | 0 | 0 | 0 | 0 | 0 | 0 | 0 | 0 | 0
14 | CCc1nc(-c2cccc(C)c2)c(-c2ccnc(NC(=O)c3ccccc3)c2)s1 (10 µM) | 0 | 0 | 0 | 0 | 0 | 0 | 0 | 0 | 0 | 0
15 | COc1cc2ncnc(Nc3ccc(O)cc3)c2cc1OC (10 µM) | 0 | 0 | 0 | 0 | 0 | 0 | 0 | 0 | 0 | 0
16 | CN1CCC(Nc2ncc3ncnc(Nc4ccc(F)c(Cl)c4)c3n2)CC1 [Falnidamol] (10 µM) | 0 | 0 | 0 | 0 | 0 | 0 | 0 | 0 | 0 | 0
17 | CCN(CCO)CCCOc1ccc2c(Nc3cc(CC(=O)Nc4cccc(F)c4)[nH]n3)ncnc2c1 [Barasertib-HQPA] (10 µM) | 0 | 0 | 0 | 0 | 0 | 0 | 0 | 0 | 0 | 0
18 | C=CC(=O)Nc1cccc(Nc2nc(Nc3ccc(OCCOC)cc3)ncc2F)c1 [Spebrutinib] (10 µM) | 0 | 0 | 0 | 0 | 0 | 0 | 0 | 1 | 0 | 0
19 | O=c1oc2ccccc2c(O)c1Cc1c(O)c2ccccc2oc1=O [Dicoumarol] (10 µM) | 0 | 0 | 0 | 0 | 0 | 0 | 0 | 0 | 0 | 0

One compound at a time, as listed above. Values in the order: number of time points [1]	number of time points [2]	number of time points [3]	number of time points [4]	number of time points [5]	number of time points [6]	number of time points [7]	number of time points [8]	number of time points [9]	number of time points [10]
CCN(CCO)CCCOc1ccc2c(Nc3cc(CC(=O)Nc4cccc(F)c4)[nH]n3)ncnc2c1 [Barasertib-HQPA] (10 µM) is listed with 0	0	0	0	0	0	0	0	0	0
CCC(=O)N1CCN(c2ccc(-n3c(=O)ccc4cnc5ccc(-c6cnc7ccccc7c6)cc5c43)cc2C(F)(F)F)CC1 [Torin 1] (2 µM) is listed with 3	0	0	0	0	2	0	0	0	0
